Experimental data published in the supplement of paper PMC11542785.
Structures can show the parent of a compound that is named as a salt. The list shows a part of the results. Many values rest on one well or one pass, so single values are uncertain. Square brackets hold non-standard residues; d marks the D form. Peptide text beside a SMILES is read from it. pGlu = O=C1CC[C@@H](C(=O)O)N1; Thz = O=C(O)[C@@H]1CSCN1

Test system: Drosophila melanogaster DPAGT1 (Alg7) RNAi eye model
Test: eye size Z-score vs DMSO-treated DPAGT1 model flies; higher = larger eye (suppression of DPAGT1 phenotype)
Conditions: 5 uM

| SMILES | eye size Z-score | eye size Z-score (female) |
| --- | --- | --- |
| CC1CC(OC(=O)c2ccccc2O)CC(C)(C)C1 (centres undefined) [Homosalate] | 1.17 |  |
| C[C@H](CCC(=O)O)[C@H]1CC[C@H]2[C@@H]3[C@@H](O)C[C@@H]4C[C@H](O)CC[C@]4(C)[C@H]3CC[C@]12C [Urosiol] |  | 0.25 |
| C#C[C@]1(O)CC[C@H]2[C@@H]3CCC4=CCCC[C@@H]4[C@H]3CC[C@@]21C [Lynestrenol] | 0.22 |  |
| O=C(CCCN1CCN(c2ccccn2)CC1)c1ccc(F)cc1 [Azaperone] |  | 0.19 |
| Nc1c2ccccc2nc2ccccc12 [Aminacrine] | 0.2 |  |
| CN1CCC(=C2c3ccccc3Sc3ccccc32)CC1 [Pimethixene maleate] | 0.67 |  |
| Cc1ccc(=O)n(-c2ccccc2)c1 [Pirfenidone] | 0.54 |  |
| N[C@@H](Cc1cc(I)c(Oc2ccc(O)c(I)c2)c(I)c1)C(=O)O [Liothyronine] | 0.58 |  |
| CN1CCN(C(c2ccccc2)c2ccccc2)CC1 [Cyclizine hydrochloride] |  | 0.2 |
| OCCN(CCO)c1nc(N2CCCCC2)c2nc(N(CCO)CCO)nc(N3CCCCC3)c2n1 [Dipyridamole] | -0.16 |  |
| CN(c1nccc(=O)[nH]1)C1CCN(c2nc3ccccc3n2Cc2ccc(F)cc2)CC1 [Mizolastine] | -0.41 |  |
| O=C(O)c1ccccc1C(=O)Nc1ccc(S(=O)(=O)Nc2nccs2)cc1 [Phthalylsulfathiazole] | 0.23 |  |
| CC(=O)OC(C)OC(=O)C(C)c1ccc(-c2ccccc2)c(F)c1 (centres undefined) [Flurbiprofen axetil] | 0.86 |  |
| CO[C@@H]1[C@@H](O[C@@H]2O[C@H](C)[C@@H](O[C@H]3C[C@@](C)(O)[C@@H](OC(=O)CC(C)C)[C@H](C)O3)[C@H](N(C)C)[C@H]2O)[C@@H](CC=O)C[C@@H](C)[C@@H](O)/C=C/C=C/C[C@@H](C)OC(=O)C[C@H]1OC(C)=O [Josamycin] | 0.91 |  |
| CC(=O)CC(c1ccccc1)c1c(O)c2ccccc2oc1=O (centres undefined) [Warfarin] | -0.13 |  |
| CCC(=O)O[C@@H]1CC(=O)O[C@H](C)C/C=C/C=C/[C@H](O)[C@H](C)C[C@H](CC=O)[C@H](O[C@@H]2O[C@H](C)[C@@H](O[C@H]3C[C@@](C)(O)[C@@H](OC(=O)CC)[C@H](C)O3)[C@H](N(C)C)[C@H]2O)[C@H]1OC [Midecamycin] | 0.5 |  |
| CCN(CC)CC(=O)Nc1c(C)cccc1C [Lidocaine hydrochloride] | 0.62 |  |
| CC(=O)OCC(=O)[C@@]12OC(C)(C)O[C@@H]1C[C@H]1[C@@H]3C[C@H](F)C4=CC(=O)C=C[C@]4(C)[C@@]3(F)[C@@H](O)C[C@@]12C [Fluocinonide] | 0.45 |  |
| c1ccc2c(CC3=NCCN3)cccc2c1 [Naphazoline hydrochloride] | 1.35 |  |
| C=CC1=C(C(=O)O)N2C(=O)[C@@H](NC(=O)/C(=N\O)c3csc(N)n3)[C@H]2SC1 [Cefdinir] | 0.31 |  |
| CC(=O)NS(=O)(=O)c1ccc(N)cc1 [Sulfacetamide sodic hydrate] | 1.25 |  |
| Cc1cn([C@H]2C=C[C@@H](CO)O2)c(=O)[nH]c1=O [Stavudine] | 0.75 |  |
| COc1cccc2c1C(=O)c1c(O)c3c(c(O)c1C2=O)C[C@@](O)(C(C)=O)C[C@@H]3O[C@H]1C[C@H](N)[C@H](O)[C@H](C)O1 [Daunorubicin hydrochloride] | 0.34 |  |
| Cc1c(NC(=O)c2cccnc2)c(=O)n(-c2ccccc2)n1C [Nifenazone] | 0.41 |  |
| CS(=O)(=O)OCCCCOS(C)(=O)=O [Busulfan] | 0.13 |  |

| SMILES | eye size Z-score | eye size Z-score (female) |
| --- | --- | --- |
| N[C@@H](Cc1c[nH]c2ccccc12)C(=O)O [L-Tryptophan] | 0.08 |  |
| CO/N=C(\C(=O)N[C@@H]1C(=O)N2C(C(=O)[O-])=C(C[n+]3cccc4c3CCC4)CS[C@H]12)c1csc(N)n1 [Cefpirome sulfate] | -0.64 |  |
| NS(=O)(=O)c1cc2c(cc1C(F)(F)F)NCNS2(=O)=O [Hydroflumethiazide] | 1.25 |  |
| CC(C)NC[C@@H](O)COc1ccc(CC(N)=O)cc1 [(R,+) Atenolol] | 1.26 |  |
| CC[C@@H]1C(=O)OC[C@@H]1Cc1cncn1C [Pilocarpine nitrate] | -0.5 |  |
| CN1CCN(CC(=O)N2c3ccccc3C(=O)Nc3cccnc32)CC1 [Pirenzepine dihydrochloride] | -0.86 |  |
| CN(CCCCCCCCCCN(C)C(=O)Oc1cccc([N+](C)(C)C)c1)C(=O)Oc1cccc([N+](C)(C)C)c1 [Demecarium bromide] | -0.35 |  |
| CC(=O)N(CC(O)CO)c1c(I)c(C(=O)NCC(O)CO)c(I)c(C(=O)NCC(O)CO)c1I (centres undefined) [Iohexol] | 1.13 |  |
| COC(=O)Nc1nc2cc(Sc3ccccc3)ccc2[nH]1 [Fenbendazole] | 0.23 |  |
| Cn1c(=O)c2c(ncn2CC2OCCO2)n(C)c1=O [Doxofylline] | -0.79 |  |
| CCOc1nc2cccc(C(=O)O)c2n1Cc1ccc(-c2ccccc2-c2nnn[nH]2)cc1 [Candesartan] | 0.56 |  |
| CCCCNC(=N)NC(=N)N [Buformin] | -0.89 |  |
| C[C@@](Cc1ccc(O)c(O)c1)(NN)C(=O)O [Carbidopa] | -1.36 |  |
| Nc1ncnc2c1ncn2[C@@H]1O[C@H](CO)[C@@H](O)[C@@H]1O [Vidarabine] | -0.64 |  |
| CC(=O)OC[C@H]1O[C@@H]([S-])[C@H](OC(C)=O)[C@@H](OC(C)=O)[C@@H]1OC(C)=O.CCP(CC)CC.[Au+] [Auranofin] | -0.46 |  |
| COc1cc(Nc2c(C#N)cnc3cc(OCCCN4CCN(C)CC4)c(OC)cc23)c(Cl)cc1Cl [Bosutinib] | 0.2 |  |
| CCCCc1oc2ccc(NS(C)(=O)=O)cc2c1C(=O)c1ccc(OCCCN(CCCC)CCCC)cc1 [Dronedarone hydrochloride] | -0.13 |  |
| CCC1(c2ccccc2)C(=O)NCNC1=O [Primidone] | 0.73 |  |
| CN(C)CCC(c1ccc(Br)cc1)c1ccccn1 (centres undefined) [Brompheniramine maleate] | -0.19 |  |
| O=C1CC[C@@H](C(=O)N2CSC[C@H]2C(=O)O)N1 [Pidotimod] ([pGlu]-[Thz]-OH) | -0.72 |  |
| c1ccc(-c2ccc(C(c3ccccc3)n3ccnc3)cc2)cc1 (centres undefined) [Bifonazole] | -0.76 |  |
| Oc1c(Cl)cc(Cl)c2cccnc12 [Chloroxine] | -0.1 |  |
| O=C(c1ccc(F)cc1)C1CCN(CCn2c(=O)[nH]c3ccccc3c2=O)CC1 [Ketanserin tartrate hydrate] | 0.99 |  |
| CCN(CC)C(=O)c1ccc(O)c(OC)c1 [Ethamivan] | 1.97 |  |
| Cc1[nH]cnc1CN1CCc2c(c3ccccc3n2C)C1=O [Alosetron hydrochloride] | -0.2 |  |

| SMILES | eye size Z-score | eye size Z-score (female) |
| --- | --- | --- |
| O=C(Cn1c(=O)sc2ccc(Cl)cc21)N1CCN(CCO)CC1 [Tiaramide Hydrochloride] | 0.12 |  |
| Cc1cc2nc3c(=O)[nH]c(=O)nc-3n(C[C@H](O)[C@H](O)[C@H](O)CO)c2cc1C [Riboflavine] | 1.54 |  |
| CCCOc1ccc2[nH]c(NC(=O)OC)nc2c1 [Oxibendazol] | 0.17 |  |
| CN(CCCN1c2ccccc2CCc2ccccc21)CC(=O)c1ccc(Cl)cc1 [Lofepramine] | 0.11 |  |
| O=C1NCC2(CCN(CCc3ccccc3)CC2)O1 [Fenspiride hydrochloride] | -0.12 |  |
| Clc1ccc2c(c1)CCc1cccnc1C2=C1CCNCC1 [Desloratadine] | 0.93 |  |
| CC(=O)O[C@]1(C(C)=O)CC[C@H]2[C@@H]3C=C(Cl)C4=CC(=O)CC[C@]4(C)[C@H]3CC[C@@]21C [Chlormadinone acetate] | -0.03 |  |
| CCN(CC)C(C)CN1c2ccccc2Sc2ccccc21 (centres undefined) [Ethopropazine hydrochloride] | -0.32 |  |
| CCCNC(=O)NS(=O)(=O)c1ccc(Cl)cc1 [Chlorpropamide] | -0.5 |  |
| Cc1cc(O)c(C(=O)N[C@@H](C(=O)N[C@@H]2C(=O)N3C(C(=O)O)=C(CSc4nnnn4C)CS[C@H]23)c2ccc(O)cc2)cn1 [Cefpiramide] | 0.13 |  |
| CO[C@H]1/C=C/O[C@@]2(C)Oc3c(C)c(O)c4c(O)c(c5c(nc6cc(C)ccn65)c4c3C2=O)NC(=O)/C(C)=C\C=C\[C@H](C)[C@H](O)[C@@H](C)[C@@H](O)[C@@H](C)[C@H](OC(C)=O)[C@@H]1C [Rifaximin] | -1.12 |  |
| O=C1[C@H]2CCCC[C@H]2C(=O)N1CCCCN1CCN(c2nsc3ccccc23)CC1 [Perospirone hydrochloride] | -0.12 |  |
| Clc1cccc(Cl)c1NC1=NCCN1 [Clonidine hydrochloride] | -0.2 |  |
| Nc1nc2c(ncn2COC(CO)CO)c(=O)[nH]1 [Ganciclovir] | 0 |  |
| NCCCCCC(=O)O [Aminocaproic acid] | 0.52 |  |
| CN(C)C(=N)NC(=N)N [Metformin hydrochloride] | 0.28 |  |
| CC=CC(=O)N(CC)c1ccccc1C [Crotamiton] | -0.46 |  |
| CC1=C(C)C(=O)C(C(CCCCCC(=O)O)c2ccccc2)=C(C)C1=O (centres undefined) [Seratrodast] |  | 0.92 |
| CNCCc1ccccn1 [Betahistine mesylate] | 0.28 |  |
| CCOC(=O)/C=C(C)/C=C/C=C(C)/C=C/c1c(C)cc(OC)c(C)c1C [Etretinate] | -0.1 |  |
| NC[C@H]1O[C@H](O[C@H]2[C@H](O)[C@@H](O[C@H]3O[C@H](CO)[C@@H](O)[C@H](N)[C@H]3O)[C@H](N)C[C@@H]2N)[C@H](N)C[C@@H]1O [Tobramycin] | 0.93 |  |
| C=CCOc1ccccc1OCC(O)CNC(C)C (centres undefined) [Oxprenolol hydrochloride] | 0.26 |  |
| Cc1cc(C(C)(C)C)cc(C)c1CC1=NCCN1 [Xylometazoline hydrochloride] | -0.56 |  |
| CCN(CC)C(=O)C1(c2ccccc2)CC1CN (centres undefined) [Milnacipran hydrochloride] | 0.58 |  |

Filtered by structure: the compounds so far with an aryl thioether with sulfur outside any ring (two)

| SMILES | eye size Z-score | eye size Z-score (female) |
| --- | --- | --- |
| COC(=O)Nc1nc2cc(Sc3ccccc3)ccc2[nH]1 [Fenbendazole] | 0.23 |  |
| Cc1cc(O)c(C(=O)N[C@@H](C(=O)N[C@@H]2C(=O)N3C(C(=O)O)=C(CSc4nnnn4C)CS[C@H]23)c2ccc(O)cc2)cn1 [Cefpiramide] | 0.13 |  |
